# From PubChem BioAssay AID248 (DTP/NCI, 2004)
# The list does not hold the whole screen: its compounds were picked by chemical class. Other doses and runs of a compound may be missing. T/C gives the treated animals as a percentage of the vehicle group. Some doses have a count of surviving animals in place of a T/C: the source files T/C as zero there, which appears to mark a toxic dose or a test without result, not a measured value. Some survivor counts are full or nearly so, which does not show that the dose was tolerated: survival well below the control is almost never listed, so the zero probably covers shortened survival too. Counts of survivors are from the toxicity check (mostly the fifth day) where no day follows; animals may have died later. Schedules are NCI's codes, read here as Q, the interval in days (D) or hours (H), X, the number of doses. Some doses were run more than once; their values stand side by side, smallest first. Some metal complexes and salts are drawn in pieces, as in the source, so charges may not balance. Where survival is the endpoint, the PubChem record calls one and a half times the control and up active, and a quarter to a half above the control has no call in these data; cut-offs in other NCI protocols can differ. Some schedule codes hold Z or #, which are not explained here. Some entries show no survivor count and are marked so; the dose need not have been tolerated. Some T/C values are followed by the survivors on the day toxicity was checked, most often the fifth; where neither a count nor a note follows, no animal had died by that day.
# Test system: L1210 leukemia ip in BDF1 mice, survival T/C
# Experiment: NCI In Vivo Anticancer Drug Screen. Data for tumor model L1210 Leukemia (intraperitoneal) in B6D2F1 (BDF1) mice
# Details: T/C endpoint: mean survival time, higher T/C = longer survival
# [1] = dose: 100.0 mg/kg/injection, schedule: Q04DX003 (ip), vehicle: saline
# [2] = dose: 200.0 mg/kg/injection, schedule: Q04DX003 (ip), vehicle: saline
# [3] = dose: 400.0 mg/kg/injection, schedule: Q04DX003 (ip), vehicle: saline
# [4] = dose: 12.5 mg/kg/injection, schedule: Q01DX009 (ip), vehicle: saline
# [5] = dose: 25.0 mg/kg/injection, schedule: Q01DX009 (ip), vehicle: saline
# [6] = dose: 25.0 mg/kg/injection, schedule: Q04DX003 (ip), vehicle: saline
# [7] = dose: 50.0 mg/kg/injection, schedule: Q04DX003 (ip), vehicle: saline
# [8] = dose: 25.0 mg/kg/injection, schedule: Q04DX003 (ip), vehicle: Klucel (hydroxypropylcellulose) (HPC)
# [9] = dose: 50.0 mg/kg/injection, schedule: Q04DX003 (ip), vehicle: Klucel (hydroxypropylcellulose) (HPC)
# [10] = dose: 100.0 mg/kg/injection, schedule: Q04DX003 (ip), vehicle: Klucel (hydroxypropylcellulose) (HPC)
# [11] = dose: 200.0 mg/kg/injection, schedule: Q04DX003 (ip), vehicle: Klucel (hydroxypropylcellulose) (HPC)
# [12] = dose: 400.0 mg/kg/injection, schedule: Q04DX003 (ip), vehicle: Klucel (hydroxypropylcellulose) (HPC)
smiles,measurement,setting,value
CCOP(=O)(CC)OC(=O)N(CC)CC (stereo unspecified),T/C,"dose: 100.0 mg/kg/injection, schedule: Q04DX002 (ip), vehicle: saline",108 % of control [survivor count not shown]
same,T/C,"dose: 200.0 mg/kg/injection, schedule: Q04DX002 (ip), vehicle: saline",97 % of control [survivor count not shown]
same,T/C,"dose: 400.0 mg/kg/injection, schedule: Q04DX002 (ip), vehicle: saline",104 % of control [survivor count not shown]
CC1C(C)(C)P(=O)(Nc2ncn[nH]2)C1(C)C (stereo unspecified),T/C,[1],100 % of control
same,T/C,[2],100 % of control
same,survivor count,[3],2 of 4
Oc1ccc(N(CCCl)CCCl)cc1O,T/C,"dose: 1.17 mg/kg/injection, schedule: Q01DX001 (ip), vehicle: water",100 % of control
same,T/C,"dose: 2.34 mg/kg/injection, schedule: Q01DX001 (ip), vehicle: water",109 % of control
same,T/C,"dose: 4.68 mg/kg/injection, schedule: Q01DX001 (ip), vehicle: water",110 % of control [5 of 6 alive]
same,survivor count,"dose: 9.38 mg/kg/injection, schedule: Q01DX001 (ip), vehicle: water",0 of 6
same,survivor count,"dose: 18.75 mg/kg/injection, schedule: Q01DX001 (ip), vehicle: water",0 of 6
same,survivor count,"dose: 37.5 mg/kg/injection, schedule: Q01DX001 (ip), vehicle: water",0 of 6
same,survivor count,"dose: 75.0 mg/kg/injection, schedule: Q01DX001 (ip), vehicle: water",0 of 6
same,survivor count,"dose: 150.0 mg/kg/injection, schedule: Q01DX001 (ip), vehicle: water",0 of 6
same,survivor count,"dose: 300.0 mg/kg/injection, schedule: Q01DX001 (ip), vehicle: water",0 of 6
CC1CCN(CCCOC(=O)C(O)(c2ccccc2)c2ccccc2)CCN1C (stereo unspecified),T/C,"dose: 3.12 mg/kg/injection, schedule: Q01DX009 (ip), vehicle: saline",105 % of control
same,T/C,"dose: 6.25 mg/kg/injection, schedule: Q01DX009 (ip), vehicle: saline",97 % of control
same,T/C,[4],103 % of control
same,T/C,[5],111 % of control
same,T/C,[6],95 % of control
same,T/C,[7],95 % of control
CCCCSP1(SCCCC)=NP(Cl)(Cl)=NP(Cl)(Cl)=N1,T/C,"dose: 100.0 mg/kg/injection, schedule: Q04DX002 (ip), vehicle: saline with Tween-80",97 % of control
same,T/C,"dose: 200.0 mg/kg/injection, schedule: Q04DX002 (ip), vehicle: saline with Tween-80",93 % of control
same,T/C,"dose: 400.0 mg/kg/injection, schedule: Q04DX002 (ip), vehicle: saline with Tween-80",107 % of control
CO[PH+](OC)c1ccccc1.[C-]#[O+].[C-]#[O+].[C-]#[O+].[C-]#[O+].[C-]#[O+].[W],T/C,"dose: 50.0 mg/kg/injection, schedule: Q04DX002 (ip), vehicle: gum acacia",94 % of control
same,T/C,"dose: 100.0 mg/kg/injection, schedule: Q04DX002 (ip), vehicle: gum acacia",105 % of control
same,T/C,"dose: 200.0 mg/kg/injection, schedule: Q04DX002 (ip), vehicle: gum acacia",91 % of control
CC(C)(C)C1COP(=O)(N(CCCl)CCCl)OC1 (stereo unspecified),T/C,"dose: 62.5 mg/kg/injection, schedule: Q01DX001 (ip), vehicle: DMSO",109 % of control
same,T/C,"dose: 125.0 mg/kg/injection, schedule: Q01DX001 (ip), vehicle: DMSO",109 % of control [5 of 6 alive]
same,survivor count,"dose: 250.0 mg/kg/injection, schedule: Q01DX001 (ip), vehicle: DMSO",0 of 6
same,survivor count,"dose: 500.0 mg/kg/injection, schedule: Q01DX001 (ip), vehicle: DMSO",0 of 6
C[N+]1(Cc2ccccc2)CC12CCCCC2 (stereo unspecified),T/C,[4],100 % of control
same,T/C,"dose: 12.5 mg/kg/injection, schedule: Q04DX003 (ip), vehicle: saline",100 % of control
same,T/C,[5],103 % of control
same,T/C,[6],110 % of control
same,survivor count,"dose: 50.0 mg/kg/injection, schedule: Q01DX009 (ip), vehicle: saline",4 of 6
same,T/C,[7],92 % of control
same,survivor count,[1],0 of 6
same,survivor count,[2],0 of 6
same,survivor count,[3],0 of 6
NP(=O)(Oc1ccccc1)N(CCCl)CCCl (stereo unspecified),T/C,"dose: 40.0 mg/kg/injection, schedule: Q01DX010 (ip), vehicle: water",96 % of control
same,T/C,"dose: 80.0 mg/kg/injection, schedule: Q01DX010 (ip), vehicle: water",96 % of control
same,T/C,"dose: 160.0 mg/kg/injection, schedule: Q01DX009 (ip), vehicle: water",94 % of control
same,T/C,"dose: 200.0 mg/kg/injection, schedule: Q01DX009 (ip), vehicle: water",96 % of control
same,T/C,"dose: 250.0 mg/kg/injection, schedule: Q01DX Z (ip), vehicle: water",96 % of control
same,T/C,"dose: 500.0 mg/kg/injection, schedule: Q01DX Z (ip), vehicle: water",91 % of control [5 of 6 alive]
O=[N+]([O-])c1cc([N+](=O)[O-])c(/C=C/c2ccccc2)c([N+](=O)[O-])c1,T/C,"dose: 25.0 mg/kg/injection, schedule: Q01DX009 (ip), vehicle: gum acacia",95 % of control
same,T/C,[8],91 % of control
same,T/C,"dose: 50.0 mg/kg/injection, schedule: Q01DX009 (ip), vehicle: gum acacia",95 % of control
same,T/C,[9],97 % of control
same,T/C,"dose: 100.0 mg/kg/injection, schedule: Q01DX009 (ip), vehicle: gum acacia",91 % of control
same,T/C,[10],94 % of control
same,survivor count,[10],6 of 6
same,survivor count,[11],6 of 6
same,T/C,[12],87 % of control
C=CCCC[P+](CC)(c1ccccc1)c1ccccc1.F[P-](F)(F)(F)(F)F,T/C,"dose: 6.25 mg/kg/injection, schedule: Q04DX003 (ip), vehicle: Klucel (hydroxypropylcellulose) (HPC)",101 % of control
same,T/C,"dose: 12.5 mg/kg/injection, schedule: Q04DX003 (ip), vehicle: Klucel (hydroxypropylcellulose) (HPC)",91 % of control
same,survivor count,[8],3 of 6
same,survivor count,[9],0 of 6 and 1 of 6
same,survivor count,[10],0 of 6
same,survivor count,[11],0 of 6
same,survivor count,[12],0 of 6
CC(N)C(=O)O.CCCCO[P+](=O)O,T/C,[1],97 % of control
same,T/C,[2],95 % of control
same,survivor count,[3],6 of 6
CCCCN(CCCC)P(=O)(Cl)N(CCCC)CCCC,T/C,"dose: 6.25 mg/kg/injection, schedule: Q01DX009 (ip), vehicle: DMSO",101 % of control
same,T/C,"dose: 12.5 mg/kg/injection, schedule: Q01DX009 (ip), vehicle: DMSO",99 % of control [2 of 3 alive]
same,survivor count,"dose: 25.0 mg/kg/injection, schedule: Q01DX009 (ip), vehicle: DMSO",1 of 3
same,survivor count,"dose: 50.0 mg/kg/injection, schedule: Q01DX009 (ip), vehicle: DMSO",0 of 3
same,survivor count,"dose: 100.0 mg/kg/injection, schedule: Q01DX009 (ip), vehicle: DMSO",0 of 3
same,survivor count,"dose: 200.0 mg/kg/injection, schedule: Q01DX009 (ip), vehicle: DMSO",0 of 3
